In PubChem BioAssay AID504467 (National Center for Advancing Translational Sciences (NCATS), 2011):
Out of some 330,000 compounds screened, about 7,700 (2.3%) were called active. Inconclusive means that the source gave no clear call. Such entries were picked first, then a sample of the others. The call rests on the fitted dose curve; in most records, active means well fitted inhibition curve with a large enough effect; inconclusive means small, poorly fitted or top-dose-only effect, or effect the other way; inactive means flat fitted curve, though single readings scatter. A potency beside an inconclusive call is a rough fit, not a confirmed value.

Experiment: qHTS screen for small molecules that inhibit ELG1-dependent DNA repair in human embryonic kidney (HEK293T) cells expressing luciferase-tagged ELG1; further: nearly all actives have a fitted effect of over 55% in size
Conditions: HEK293T ELG1-luciferase reporter, luminescence, 16 h, DNA damage induced by 5-fluorouridine; series mostly up to 46.1 µM
Summary of the method: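 Reporter activity after DNA damage by 5-fluorouridine is monitored. Compound-treated cells incubate 16 hr at 37 °C, then ONE-Glo is added for 30 min before luminescence reading.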
Potency means the concentration at half of the fitted maximal effect.

SMILES | Potency
Cc1ccc(C)c(S(=O)(=O)N2CCN(CC(=O)Nc3ccc4c(c3)CCC4)CC2)c1 | inconclusive: 14.6 µM [inhibitor, partial curve, poor fit]
C[C@@H]1O[C@@H](O[C@@H]2[C@@H](O)[C@H](OCCc3ccc(O)c(O)c3)O[C@H](CO)[C@H]2OC(=O)/C=C/c2ccc(O)c(O)c2)[C@H](O)[C@H](O)[C@H]1O | inactive
CCOC(=O)c1ccc(N2C(=O)CC(SCC(=O)Nc3ccc(S(N)(=O)=O)cc3)C2=O)cc1 (stereo unspecified) | inactive
Cc1ccc(NC(=O)COC(=O)Cn2cnc3ccccc32)c([N+](=O)[O-])c1 | inconclusive: 32.6 µM [activator, single point]
O=C(CCCN1C(=O)/C(=C/c2ccccc2Cl)SC1=S)NNC(=O)c1ccncc1 | inconclusive: 23.1 µM [inhibitor, single point]
COc1ccccc1CCC(=O)N(Cc1ccccc1)c1c(N)n(Cc2ccccc2)c(=O)[nH]c1=O | inactive
CN1CCc2c(sc3c2C(=O)NC(c2ccccc2)N3)C1 (stereo unspecified) | inconclusive: 20.6 µM [activator, single point]
COc1ccccc1NC(=O)c1ccc2nc(C)c(C)nc2c1 | inactive
Cc1ccc(Cn2c(SCC(=O)NCc3ccco3)nc3ccsc3c2=O)cc1 | inactive
Cc1cc(S(=O)(=O)NCC(c2ccc3c(c2)OCO3)N2CCOCC2)ccc1F (stereo unspecified) | inconclusive: 29.1 µM [inhibitor, single point]
COc1ccccc1N1CCN(/N=C/c2cccc(Cl)c2)CC1 | inconclusive: 16.4 µM [activator, partial curve]
CN(C)c1cccc(C(=O)NNC(=O)CSc2ccccc2)c1 | inconclusive: 18.3 µM [activator, partial curve]
C[C@H](NC(=O)c1ccccc1)C(=O)OCC(=O)Nc1sccc1C(N)=O | inactive
Cc1nc2cc(C(F)(F)F)ccc2n1CCNc1nc(-c2ccc([N+](=O)[O-])c(Cl)c2)cs1 | inconclusive: 14.6 µM [inhibitor, partial curve, poor fit]
Cc1nc(C(F)(F)F)ccc1C(=O)NCC(O)c1ccccc1 (stereo unspecified) | inconclusive: 14.6 µM [activator, partial curve]
Cc1cccc(/C=N/NC(=O)NC23CC4CC(CC(C4)C2)C3)n1 | inconclusive: 11.6 µM [activator, partial curve, poor fit]
Cc1cc(C(=O)COC(=O)Cn2cnc3c2c(=O)n(C)c(=O)n3C)c(C)n1C | inconclusive: 29.1 µM [inhibitor, single point]
Cc1ccc(S(=O)(=O)N(C)C(=O)NC(=O)NS(=O)(=O)c2ccccc2)cc1 | inconclusive: 1.16 µM [inhibitor, single point]
Cc1nc2sc(C(c3ccco3)N3CCC(Cc4ccccc4)CC3)c(O)n2n1 (stereo unspecified) | inactive
Cc1ccc2[nH]c(-c3cccc(N)c3)cc2c1 | inconclusive: 2.59 µM [activator, full curve]
COCCCNC(=O)c1c[nH]c2ccc(S(=O)(=O)N3CCc4ccccc43)cc2c1=O | active: 7.3 µM
COc1ccc(/C=C/C(=O)c2ccc([N+](=O)[O-])o2)cc1 | inconclusive: 29.1 µM [inhibitor, single point]

SMILES | Potency
Cc1cc(C(=O)Nc2ccncc2)c2ccccc2n1 | active: 23.1 µM
Cc1ccc(OCC(=O)N(Cc2ccccc2)C(C)C)c([N+](=O)[O-])n1 | inactive
CN(C)CCN(C(=O)CCS(=O)(=O)c1ccccc1)c1nc2cc3c(cc2s1)OCO3 | inconclusive: 25.9 µM [activator, single point]
COc1ccccc1OCC(=O)Nc1ccc2c(c1)n(C)c(=O)n2C | inconclusive: 23.1 µM [activator, partial curve]
Cc1cc(C(=O)CSc2nc(N)cc(=O)[nH]2)c(C)n1-c1ccc(OC(F)F)cc1 | inconclusive: 2.31 µM [inhibitor, partial curve]
Cc1ccc(NC(=O)ON=C2CCCC2)cc1 | inconclusive: 9.2 µM [activator, partial curve]
CCC(C)N(C(=O)Cn1cnc2c1c(=O)n(C)c(=O)n2C)C1CCS(=O)(=O)C1 (stereo unspecified) | inactive
Cc1nc2ccccc2nc1N1CCCC1 | inconclusive: 18.3 µM [activator, single point]
Cc1ccc(S(=O)(=O)N2CCNC(=O)CC2)cc1 | inactive
CCCc1nc2ccccc2c(C(=O)OCC(=O)Nc2c(C)n(C)n(-c3ccccc3)c2=O)c1CC | inconclusive: 29.1 µM [inhibitor, single point]
COCc1cc(C)nc(N2CCN(c3ccccc3)CC2)c1C#N | inconclusive: 29.1 µM [inhibitor, partial curve, poor fit]
Cc1nc(SCC(=O)N2CCN(C(=O)c3ccco3)CC2)c2c(C)c(C)sc2n1 | inconclusive: 29.1 µM [inhibitor, single point]
Nc1c(C(=O)Nc2nc3ccccc3s2)sc2nc(-c3cccs3)ccc12 | inconclusive: 0.58 µM [activator, partial curve, poor fit]
CCCCCn1c(N)c(-c2nc3ccccc3s2)c2c([N+](=O)[O-])nn(CC)c(=O)c21 | active: 2.59 µM
C=CCn1c(Cc2nc3ccc(Cl)cc3[nH]2)n[nH]c1=S | inconclusive: 18.4 µM [activator, single point]
Cc1c(NC(=S)NC(=O)c2sc3ccccc3c2Cl)cccc1C(=O)O | inconclusive: 0.291 µM [activator, full curve]
C/C(=N\NC(=O)c1ccc(O)cc1O)c1cccnc1 | inconclusive: 18.3 µM [activator, single point]
Cc1ccc(OCC(=O)Nc2ccon2)c([N+](=O)[O-])c1 | inconclusive: 14.6 µM [activator, partial curve]
Cc1cccc(NC(=O)c2ccc3c(c2)OCCO3)c1 | inconclusive: 0.92 µM [activator, full curve]
COC(=O)c1ccccc1OCCCOc1ccc(C)cc1OC | inconclusive: 16.4 µM [activator, single point]
O=C(Nc1ccc(S(=O)(=O)NC2CCCCC2)cc1)c1ccc(Br)o1 | inconclusive: 8.2 µM [inhibitor, partial curve, poor fit]
COc1ccc(N2CCN(c3c(S(=O)(=O)c4ccccc4)cnc4ccc(OC)cc34)CC2)cc1 | active: 18.4 µM

Molecules from the list above containing fluorine (4):
SMILES | Potency
Cc1cc(S(=O)(=O)NCC(c2ccc3c(c2)OCO3)N2CCOCC2)ccc1F (stereo unspecified) | inconclusive: 29.1 µM [inhibitor, single point]
Cc1nc2cc(C(F)(F)F)ccc2n1CCNc1nc(-c2ccc([N+](=O)[O-])c(Cl)c2)cs1 | inconclusive: 14.6 µM [inhibitor, partial curve, poor fit]
Cc1nc(C(F)(F)F)ccc1C(=O)NCC(O)c1ccccc1 (stereo unspecified) | inconclusive: 14.6 µM [activator, partial curve]
Cc1cc(C(=O)CSc2nc(N)cc(=O)[nH]2)c(C)n1-c1ccc(OC(F)F)cc1 | inconclusive: 2.31 µM [inhibitor, partial curve]

Carrying on:

SMILES | Potency
COc1ccccc1C(=O)Nc1ccc(Oc2nnc(-c3ccc(C)cc3)c3ccccc23)cc1 | inconclusive: 23.1 µM [inhibitor, partial curve, poor fit]
O=C(NCCN1CCOCC1)C(=O)c1c[nH]c2ccccc12 | inconclusive: 20.6 µM [activator, single point]
Cc1csc(NC(=O)NCC2CCCC(CNC(=O)Nc3nc(C)cs3)C2)n1 (stereo unspecified) | inconclusive: 23.1 µM [inhibitor, single point]
CCNc1nc(NCC)nc(-n2nc(C)cc2C)n1 | inconclusive: 13 µM [inhibitor, partial curve, poor fit]
CC1CCN(c2nc(-c3ccccc3)c(C#N)c(=O)[nH]2)CC1 | inconclusive: 25.9 µM [activator, single point]
CN(C)c1ccc(/C=N/NC(=O)c2ccc(Cn3cc(Br)cn3)o2)cc1 | inconclusive: 13 µM [activator, partial curve]
CNc1nc2[nH]c(=O)c3c(c2s1)OC(N)=C(C#N)C3c1ccccc1 (stereo unspecified) | inactive
COc1ccc(NC(=O)c2ccc(OC)cc2)cc1 | inconclusive: 5.8 µM [activator, partial curve]
CCCCCC(=O)N1CC2(CC(c3cccc(NC(=O)c4ccccc4)c3)=NO2)C[C@@H]1C(N)=O (stereo partly specified) | inconclusive: 16.4 µM [inhibitor, single point]
Cn1c(CSCc2ccc(Cl)cc2)nnc1SCC(=O)Nc1nccs1 | inconclusive: 23.1 µM [inhibitor, single point]
O=[N+]([O-])c1ccc(/C=N/NC(=S)Nc2ccccc2C(F)(F)F)o1 | inactive
CCCCCn1c(=O)c(-c2nc3ccccc3c(=O)[nH]2)c(O)c2ccccc21 | inconclusive: 23.1 µM [activator, partial curve, poor fit]
Cc1ccc(S(=O)(=O)N2CCC(=O)N(CCOC(=O)Nc3ccc(C)c(C)c3)CC2)cc1 | inconclusive: 18.4 µM [inhibitor, single point]
CCOC(=O)/C=C/[C@H]1CC2(CCO1)SCCCS2 | inconclusive: 20.6 µM [activator, partial curve]
Cc1cccc(N2CCN(S(=O)(=O)c3cccc4nonc34)CC2C)c1 (stereo unspecified) | inconclusive: 25.9 µM [inhibitor, single point]
CCOC(=O)c1[nH]c2ccc(F)cc2c1NC(=O)CN1CCc2cc(OC)c(OC)cc2C1 | active: 6.51 µM
CC(C)C(NC(=O)c1ccc(Cl)cc1)C(=O)O (stereo unspecified) | inconclusive: 0.231 µM [inhibitor, single point]
Cc1ccccc1S(=O)(=O)c1c(C)cc(C)n(C(C)C)c1=O | inactive
O=C(CSc1ncnc2[nH]ncc12)Nc1nc(-c2ccc(F)c(F)c2)cs1 | inconclusive: 20.6 µM [inhibitor, single point]
Cc1ccccc1NC(=O)CSc1nc2ccccc2o1 | inconclusive: 20.6 µM [activator, partial curve]
COc1ccc(S(=O)(=O)N2CCCCCC2)cc1NC(=O)Cc1ccc(OC)c(OC)c1 | active: 18.3 µM
CCc1c(C(=O)NC2CCCc3ccccc32)[nH]c(C)c1C(C)=O (stereo unspecified) | inconclusive: 11.6 µM [activator, partial curve]
